Reference: the supplement of paper PMC12823440, “Inhibitors supercharge kinase turnover through native proteolytic circuits” (Nature, 2025)
Some of the results follow. The calls rarely recur for the same compound in another form.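 Kinases were expressed as nanoluciferase fusions in K562 cells and luminescence was read every 4 h between 2 and 18 h as percent of control, DMSO set to 100% and a positive control to 0%. A time point counts as decreased when the signal drops significantly (2 sigma). The hit call is the authors' own, does not follow from the count of time points alone, and its rule is not shown.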

By UniProt entry, the sequences of proteins in these tests, tags left out. Where a name states a change or a piece, a line headed by the entry shows the natural chain unless it says otherwise.
UniProt O75460: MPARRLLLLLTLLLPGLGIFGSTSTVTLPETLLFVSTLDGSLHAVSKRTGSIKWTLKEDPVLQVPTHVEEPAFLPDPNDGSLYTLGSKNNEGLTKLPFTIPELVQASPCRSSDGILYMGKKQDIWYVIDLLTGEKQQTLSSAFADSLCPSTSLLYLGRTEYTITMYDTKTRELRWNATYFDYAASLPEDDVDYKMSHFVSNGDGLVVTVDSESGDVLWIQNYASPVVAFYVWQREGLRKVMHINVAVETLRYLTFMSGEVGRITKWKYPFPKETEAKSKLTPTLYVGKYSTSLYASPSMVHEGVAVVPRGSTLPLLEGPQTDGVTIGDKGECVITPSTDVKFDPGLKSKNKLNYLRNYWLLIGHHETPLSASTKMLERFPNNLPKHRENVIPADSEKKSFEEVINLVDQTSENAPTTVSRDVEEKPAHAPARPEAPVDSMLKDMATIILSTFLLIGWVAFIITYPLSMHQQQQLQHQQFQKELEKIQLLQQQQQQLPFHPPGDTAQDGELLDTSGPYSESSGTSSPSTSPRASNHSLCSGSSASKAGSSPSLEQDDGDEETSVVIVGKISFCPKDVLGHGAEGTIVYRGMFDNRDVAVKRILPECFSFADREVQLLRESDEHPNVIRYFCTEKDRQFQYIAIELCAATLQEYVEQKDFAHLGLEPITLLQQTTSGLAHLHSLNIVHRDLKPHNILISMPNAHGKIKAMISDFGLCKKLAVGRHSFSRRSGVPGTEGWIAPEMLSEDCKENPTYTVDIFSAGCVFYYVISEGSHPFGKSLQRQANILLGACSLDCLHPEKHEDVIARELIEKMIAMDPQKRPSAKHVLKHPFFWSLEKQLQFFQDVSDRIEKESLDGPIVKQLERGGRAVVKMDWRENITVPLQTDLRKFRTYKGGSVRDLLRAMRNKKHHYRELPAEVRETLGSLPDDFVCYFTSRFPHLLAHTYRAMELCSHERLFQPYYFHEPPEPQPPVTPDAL
UniProt P11362, whole entry, looked up: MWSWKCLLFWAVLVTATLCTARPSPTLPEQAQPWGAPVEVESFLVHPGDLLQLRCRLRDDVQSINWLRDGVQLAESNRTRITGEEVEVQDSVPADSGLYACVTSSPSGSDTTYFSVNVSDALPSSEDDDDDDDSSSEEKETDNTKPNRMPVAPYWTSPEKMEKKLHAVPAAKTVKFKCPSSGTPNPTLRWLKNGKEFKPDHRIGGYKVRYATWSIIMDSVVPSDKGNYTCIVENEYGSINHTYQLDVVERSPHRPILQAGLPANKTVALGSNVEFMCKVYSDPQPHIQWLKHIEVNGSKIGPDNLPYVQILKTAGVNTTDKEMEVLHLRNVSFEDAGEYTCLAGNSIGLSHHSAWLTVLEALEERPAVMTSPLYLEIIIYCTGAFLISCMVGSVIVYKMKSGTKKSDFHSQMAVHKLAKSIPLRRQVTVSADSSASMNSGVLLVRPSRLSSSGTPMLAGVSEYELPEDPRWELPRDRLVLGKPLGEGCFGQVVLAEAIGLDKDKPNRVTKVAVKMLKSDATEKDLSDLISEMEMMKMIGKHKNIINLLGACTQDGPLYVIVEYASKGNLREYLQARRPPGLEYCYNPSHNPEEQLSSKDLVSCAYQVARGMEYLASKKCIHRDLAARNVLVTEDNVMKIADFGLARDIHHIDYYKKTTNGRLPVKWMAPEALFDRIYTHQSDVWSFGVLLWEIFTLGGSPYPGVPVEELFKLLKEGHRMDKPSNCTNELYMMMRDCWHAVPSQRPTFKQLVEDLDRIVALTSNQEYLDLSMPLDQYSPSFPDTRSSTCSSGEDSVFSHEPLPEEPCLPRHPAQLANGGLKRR
UniProt P21802, whole entry, looked up: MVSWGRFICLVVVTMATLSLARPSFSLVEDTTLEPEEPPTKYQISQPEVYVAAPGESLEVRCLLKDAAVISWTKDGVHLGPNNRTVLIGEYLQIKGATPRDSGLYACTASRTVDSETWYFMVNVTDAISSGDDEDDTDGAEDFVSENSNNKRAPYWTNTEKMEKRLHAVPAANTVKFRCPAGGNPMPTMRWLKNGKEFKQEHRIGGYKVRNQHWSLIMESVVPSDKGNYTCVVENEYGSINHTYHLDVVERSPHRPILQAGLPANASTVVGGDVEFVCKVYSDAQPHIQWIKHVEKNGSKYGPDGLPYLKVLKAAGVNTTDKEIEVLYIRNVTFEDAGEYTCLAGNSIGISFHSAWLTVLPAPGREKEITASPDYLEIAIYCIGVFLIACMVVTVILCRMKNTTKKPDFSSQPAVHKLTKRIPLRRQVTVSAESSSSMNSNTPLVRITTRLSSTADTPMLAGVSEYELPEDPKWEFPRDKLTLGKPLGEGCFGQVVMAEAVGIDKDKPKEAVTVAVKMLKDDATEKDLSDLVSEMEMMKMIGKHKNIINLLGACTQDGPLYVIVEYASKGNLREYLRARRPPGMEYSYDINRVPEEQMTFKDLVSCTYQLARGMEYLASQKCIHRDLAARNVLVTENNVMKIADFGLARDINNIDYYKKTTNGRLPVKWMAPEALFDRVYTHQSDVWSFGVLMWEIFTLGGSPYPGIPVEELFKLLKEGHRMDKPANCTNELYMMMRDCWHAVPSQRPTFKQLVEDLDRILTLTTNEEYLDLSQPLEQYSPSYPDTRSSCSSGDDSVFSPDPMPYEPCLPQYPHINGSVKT
UniProt P22607, whole entry, looked up: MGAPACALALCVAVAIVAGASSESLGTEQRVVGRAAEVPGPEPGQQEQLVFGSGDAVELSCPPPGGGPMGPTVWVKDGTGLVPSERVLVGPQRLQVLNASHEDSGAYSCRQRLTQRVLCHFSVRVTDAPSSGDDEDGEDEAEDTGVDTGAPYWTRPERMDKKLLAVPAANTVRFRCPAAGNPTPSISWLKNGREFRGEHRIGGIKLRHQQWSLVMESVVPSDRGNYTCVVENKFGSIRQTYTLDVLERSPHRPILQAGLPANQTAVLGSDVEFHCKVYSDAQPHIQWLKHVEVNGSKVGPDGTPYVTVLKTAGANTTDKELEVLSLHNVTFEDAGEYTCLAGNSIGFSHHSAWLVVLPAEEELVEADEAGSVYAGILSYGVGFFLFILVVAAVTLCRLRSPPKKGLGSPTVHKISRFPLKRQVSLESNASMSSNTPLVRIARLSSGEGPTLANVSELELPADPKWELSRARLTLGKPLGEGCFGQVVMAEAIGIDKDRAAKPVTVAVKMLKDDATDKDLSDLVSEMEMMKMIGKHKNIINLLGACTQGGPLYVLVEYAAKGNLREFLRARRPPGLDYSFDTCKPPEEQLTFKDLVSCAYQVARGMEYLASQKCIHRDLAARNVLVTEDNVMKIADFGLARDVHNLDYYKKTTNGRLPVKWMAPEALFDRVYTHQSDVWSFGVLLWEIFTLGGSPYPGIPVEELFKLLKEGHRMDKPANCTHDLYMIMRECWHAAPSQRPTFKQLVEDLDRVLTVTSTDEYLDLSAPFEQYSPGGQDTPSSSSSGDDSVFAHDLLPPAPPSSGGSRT
UniProt P06241, whole entry, looked up: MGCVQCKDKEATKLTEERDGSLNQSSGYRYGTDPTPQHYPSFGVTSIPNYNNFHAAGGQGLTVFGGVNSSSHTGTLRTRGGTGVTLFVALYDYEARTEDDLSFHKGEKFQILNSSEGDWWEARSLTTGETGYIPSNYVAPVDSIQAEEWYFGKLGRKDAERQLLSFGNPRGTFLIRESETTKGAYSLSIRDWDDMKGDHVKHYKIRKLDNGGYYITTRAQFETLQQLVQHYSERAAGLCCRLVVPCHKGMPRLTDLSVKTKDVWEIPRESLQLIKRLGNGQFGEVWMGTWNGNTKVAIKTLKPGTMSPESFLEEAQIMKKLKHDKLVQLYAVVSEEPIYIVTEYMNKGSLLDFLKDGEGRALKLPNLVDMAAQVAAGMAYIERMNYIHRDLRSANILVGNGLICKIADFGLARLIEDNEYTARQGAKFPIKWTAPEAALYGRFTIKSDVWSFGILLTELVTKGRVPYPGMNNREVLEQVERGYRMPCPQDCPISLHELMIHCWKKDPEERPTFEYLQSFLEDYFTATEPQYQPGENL
UniProt P49840: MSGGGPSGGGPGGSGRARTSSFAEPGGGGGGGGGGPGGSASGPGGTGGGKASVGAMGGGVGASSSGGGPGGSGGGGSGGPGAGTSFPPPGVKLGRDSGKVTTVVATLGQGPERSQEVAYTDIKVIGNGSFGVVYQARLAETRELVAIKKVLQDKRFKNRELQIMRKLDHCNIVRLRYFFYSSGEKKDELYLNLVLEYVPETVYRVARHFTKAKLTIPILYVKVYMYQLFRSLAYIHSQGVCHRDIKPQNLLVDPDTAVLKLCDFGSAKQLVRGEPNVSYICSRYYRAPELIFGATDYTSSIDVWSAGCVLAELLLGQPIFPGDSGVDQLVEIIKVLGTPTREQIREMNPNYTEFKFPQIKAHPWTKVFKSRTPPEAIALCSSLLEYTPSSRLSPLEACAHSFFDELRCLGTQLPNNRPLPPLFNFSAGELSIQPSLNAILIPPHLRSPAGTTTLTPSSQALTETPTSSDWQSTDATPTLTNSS
UniProt P14616: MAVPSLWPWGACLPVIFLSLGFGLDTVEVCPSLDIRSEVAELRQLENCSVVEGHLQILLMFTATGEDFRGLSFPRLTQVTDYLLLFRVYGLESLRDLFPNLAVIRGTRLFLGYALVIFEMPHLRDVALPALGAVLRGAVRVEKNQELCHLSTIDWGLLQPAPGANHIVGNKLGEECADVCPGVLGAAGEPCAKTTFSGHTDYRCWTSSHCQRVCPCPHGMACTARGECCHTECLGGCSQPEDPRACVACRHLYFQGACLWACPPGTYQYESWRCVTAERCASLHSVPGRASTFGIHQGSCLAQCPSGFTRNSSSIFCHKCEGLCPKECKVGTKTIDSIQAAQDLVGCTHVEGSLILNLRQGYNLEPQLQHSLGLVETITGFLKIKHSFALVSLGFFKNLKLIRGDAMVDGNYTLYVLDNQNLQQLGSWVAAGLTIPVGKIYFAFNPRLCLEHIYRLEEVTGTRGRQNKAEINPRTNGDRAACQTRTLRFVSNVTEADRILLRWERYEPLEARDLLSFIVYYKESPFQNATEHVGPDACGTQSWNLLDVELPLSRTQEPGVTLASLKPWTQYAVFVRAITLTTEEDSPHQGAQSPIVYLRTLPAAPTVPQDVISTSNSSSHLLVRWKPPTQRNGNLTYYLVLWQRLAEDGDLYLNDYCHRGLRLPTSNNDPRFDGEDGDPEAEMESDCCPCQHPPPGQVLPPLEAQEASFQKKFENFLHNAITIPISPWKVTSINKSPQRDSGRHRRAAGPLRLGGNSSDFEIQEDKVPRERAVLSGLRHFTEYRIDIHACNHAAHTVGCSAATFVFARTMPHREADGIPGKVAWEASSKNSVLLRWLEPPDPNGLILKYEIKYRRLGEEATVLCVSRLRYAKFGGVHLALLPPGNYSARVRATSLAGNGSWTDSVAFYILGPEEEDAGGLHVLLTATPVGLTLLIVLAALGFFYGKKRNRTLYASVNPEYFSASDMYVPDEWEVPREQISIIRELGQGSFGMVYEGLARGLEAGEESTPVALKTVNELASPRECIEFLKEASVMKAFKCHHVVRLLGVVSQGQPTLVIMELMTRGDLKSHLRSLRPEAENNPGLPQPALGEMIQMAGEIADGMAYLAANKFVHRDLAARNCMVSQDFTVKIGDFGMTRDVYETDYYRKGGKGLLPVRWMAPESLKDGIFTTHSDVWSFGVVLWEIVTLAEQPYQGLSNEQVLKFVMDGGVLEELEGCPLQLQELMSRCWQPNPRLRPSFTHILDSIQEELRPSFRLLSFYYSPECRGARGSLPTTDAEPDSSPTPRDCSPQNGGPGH

Columns and labels:
Test in all cases: kinase-Nluc reporter destabilization hit call (1 = scored as downregulated) (binary); higher = compound decreases kinase abundance
Settings in all cases: K562; 2-18 h
ERN1 = ERN1 (UniProt O75460)
FGFR1 = FGFR1 (UniProt P11362)
FGFR2 = FGFR2 (UniProt P21802)
FGFR3 = FGFR3 (UniProt P22607)
FGR = FGR (UniProt P09769)
FLT3 = FLT3 (UniProt P36888)
FYN = FYN (UniProt P06241)
GSK3A = GSK3A (UniProt P49840)
HER2 = HER2 (UniProt P04626)
INSRR = INSRR (UniProt P14616)

Measured: kinase-Nluc reporter destabilization hit call

CCCNC(=O)c1cn2ncnc(Nc3cc(C(=O)NC4CC4)ccc3C)c2c1C (10 µM)
inactive: ERN1 = 0 | FGFR1 = 0 | FGFR2 = 0 | FGFR3 = 0 | FGR 0 | FLT3 = 0 | FYN 0 | GSK3A 0 | HER2 = 0 | INSRR 0

O=C(O)c1ccc(N2N=C(Cc3ccccc3)C(=Cc3ccc(-c4ccccc4F)o3)C2=O)cc1 (10 µM)
inactive: ERN1 = 0 | FGFR1 = 0 | FGFR2 = 0 | FGFR3 = 0 | FGR 0 | FLT3 = 0 | FYN 0 | GSK3A 0 | HER2 = 0 | INSRR 0

Cc1cnc(Nc2ccc(N3CCN(C)CC3)cc2)nc1Nc1cccc(S(=O)(=O)NC(C)(C)C)c1 (2.5 µM)
inactive: ERN1 = 0 | FGFR1 = 0 | FGFR2 = 0 | FGFR3 = 0 | FGR 0 | FLT3 = 0 | FYN 0 | GSK3A 0 | HER2 = 0 | INSRR 0

CCOc1ccccc1C=C1C(=O)Nc2ccccc21 (10 µM)
inactive: ERN1 = 0 | FGFR1 = 0 | FGFR2 = 0 | FGFR3 = 0 | FGR 0 | FLT3 = 0 | FYN 0 | GSK3A 0 | HER2 = 0 | INSRR 0
